Experimental data from patent US8022235B2, “Compositions of phospholipid ether boronic acids and esters and methods for their synthesis and use” (Cellectar, Inc., priority 2007, dated 2011).
For at least one compound, name, drawing or mass did not settle the structure.

How the values were obtained:
rat mammary tumor = assay: Biodistribution of 125I-NM324 in rat mammary tumor model; assay type: in vivo; settings: 96 hours
animal tumor models = assay: Imaging and biodistribution across animal tumor models (general statements); settings: several tumor models, later post-injection times
Text: See, for example, U.S. patent application Ser. Nos. 10/906,687, 11/177,740, 11/316,620 and 11/382,645. Due to deficiencies in metabolic phospholipase enzymes in the membranes of malignant tumor cells, the prevailing hypothesis for this specificity is that phospholipid ether analogs become trapped exclusively in tumor cell membranes because of their inability to become metabolized and eliminated by the cancerous cell. Thus, the differential clearance rates of phospholipid ethers from normal cells versus neoplastic tumor cells are responsible for this specificity.
The reason for the retention of PLE and analogs in cancer cells remains unknown. Without being held to any particular theory, however, the prevailing hypothesis, is that radioiodinated PLE and APC analogs become trapped in tumor cell membranes because of their inability to be metabolized and eliminated. On the other hand, such lipid molecules are metabolized and cleared by normal tissues, including the liver.
These PLE analogs are specifically designed to incorporate aromatic radioiodine in order to render the molecule stable towards in vivo deiodination.

`C[N+](C)(C)CCOP(=O)([O-])OCCCCCCCCCCCCc1cccc([125I])c1` [Compound 125I-NM324] was tested, and the tumor-to-muscle ratio (rat mammary tumor) was 20:1 and the tumor-to-blood ratios (animal tumor models) was “exceeding 8:1”.
